Earlier results, collected in patent US8637685B2, “Schweinfurthin analogues” (University of Iowa Research Foundation, priority 2008, dated 2014).
Some of these results come from one statement about several compounds together.

System: NCI 60 human tumor cell lines
Settings: NCI's 60-cell line anticancer assay, mean; cited from earlier work

Schweinfurthin A
GI50: < 1000 nM
